Assay results: paper doi:10.1101/609503
Read-outs that look alike come from different tables or passages of the source. These are yes or no findings as the source states them, for the method shown. Binding seen in cells or lysates may run through a third protein. A yes stands for co-enrichment or nearness to the bait. Other partners may have been found. Values belong to the binder of their own block, whether it stands above or below them.

Experiments:
[1] = biological target: T1, NlpI (soluble version, residues 19-294) (E. coli) (UniProt P0AFB1); experiment: affinity purification with mass spectrometry
T1 sequence (chain, NT647 RED-NHS dye on amines where used as the labelled partner (fl-NlpI)): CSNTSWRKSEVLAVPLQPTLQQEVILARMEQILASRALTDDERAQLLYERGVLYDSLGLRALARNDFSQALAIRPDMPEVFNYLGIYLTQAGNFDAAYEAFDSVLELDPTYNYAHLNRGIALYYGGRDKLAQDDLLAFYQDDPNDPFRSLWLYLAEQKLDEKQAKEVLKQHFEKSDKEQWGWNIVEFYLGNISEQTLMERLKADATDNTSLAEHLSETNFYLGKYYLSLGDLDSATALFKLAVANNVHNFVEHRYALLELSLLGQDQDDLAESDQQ

[2] = biological target: T1, NlpI (soluble version, residues 19-294) (E. coli); experiment: affinity purification with mass spectrometry; remark: listed apart in the source

binding [1]: binds
binding [2]: binds
B1: MltA (endogenous, membrane extract) (enzyme, UniProt P0A935 21-365)
chain: CSSKPTDRGQQYKDGKFTQPFSLVNQPDAVGAPINAGDFAEQINHIRNSSPRLYGNQSNVYNAVQEWLRAGGDTRNMRQFGIDAWQMEGADNYGNVQFTGYYTPVIQARHTRQGEFQYPIYRMPPKRGRLPSRAEIYAGALSDKYILAYSNSLMDNFIMDVQGSGYIDFGDGSPLNFFSYAGKNGHAYRSIGKVLIDRGEVKKEDMSMQAIRHWGETHSEAEVRELLEQNPSFVFFKPQSFAPVKGASAVPLVGRASVASDRSIIPPGTTLLAEVPLLDNNGKFNGQYELRLMVALDVGGAIKGQHFDIYQGIGPEAGHRAGWYNHYGRVWVLKTAPGAGNVFSG

binding [1]: binds
binding [2]: binds
B2: FtsX (endogenous, membrane extract) (protein, UniProt P0AC30 1-352)
chain: MNKRDAINHIRQFGGRLDRFRKSVGGSGDGGRNAPKRAKSSPKPVNRKTNVFNEQVRYAFHGALQDLKSKPFATFLTVMVIAISLTLPSVCYMVYKNVNQAATQYYPSPQITVYLQKTLDDDAAAGVVAQLQAEQGVEKVNYLSREDALGEFRNWSGFGGALDMLEENPLPAVAVVIPKLDFQGTESLNTLRDRITQINGIDEVRMDDSWFARLAALTGLVGRVSAMIGVLMVAAVFLVIGNSVRLSIFARRDSINVQKLIGATDGFILRPFLYGGALLGFSGALLSLILSEILVLRLSSAVAEVAQVFGTKFDINGLSFDECLLLLLVCSMIGWVAAWLATVQHLRHFTPE
